Laboratory results taken from PubChem BioAssay AID2417 (National Center for Advancing Translational Sciences (NCATS), 2010).
About 4,300 (3.1%) of roughly 140,000 compounds were called active. Inconclusive means that the source gave no clear call. Such entries were picked first, then a sample of the others.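 The calls were made as follows: active = readout at or below -70, meaning at least 70% loss of cells showing the perinucleolar compartment, a nuclear body marking cancer cells; inconclusive = readout between -30 and a set limit; inactive = the rest.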

assay: High Content Assay for Compounds that inhibit the Assembly of the Perinucleolar Compartment; settings: PC3M PTB-GFP, PNC prevalence imaging, 16 h; at 10 µM; hits give low values;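 also: plate controls were DMSO wells for no effect and camptothecin positive control wells for full effect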
Outline: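 Read-out is percentage of cells bearing a perinucleolar compartment, from automated 20x imaging of fixed, Hoechst-stained PC3M PTB-GFP cells. Cells were seeded 4 h, then exposed 16 h to compound (23 nl of library stock) in duplicate plates.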

Compound	activity change (PNC), negative = inhibition
COCCCn1c(SCC(=O)Nc2ccc(C(=O)OC)cc2)nc2ccccc2c1=O	active: -117%
CCCNC(=O)C(=O)N/N=C/c1cccs1	inconclusive: -63%
COc1cccc(C2CC(c3c(Cl)cccc3Cl)n3nc(N)nc3N2)c1 (stereo not drawn)	inconclusive: -51.2%
Oc1ccc(Cl)cc1CNc1ccc(Br)cn1	inconclusive: -32%
COc1ccc(C(C(C(=O)c2ccco2)N2CCOCC2)N2CCOCC2)cc1 (stereo not drawn)	inconclusive: -63.4%
COc1ccc2c3c(c(=O)oc2c1OCC(=O)O)CCCC3	inconclusive: -48.7%
Cc1cccc(N2CCN(C(=O)Cc3c(C(=O)O)[nH]c4ccc(Cl)cc34)CC2)c1C	inconclusive: -41.6%
O=C(O)c1sccc1Oc1ccc(F)cc1[N+](=O)[O-]	inconclusive: -54.3%
Cc1cc(C)n2nc(C(=O)NCc3ccccc3)nc2n1	inconclusive: -30.3%
Cc1ccc2c(CN3CCN(CCO)CC3)cc(=O)oc2c1C	inactive: 2.95%
N#CC1=C(N)N(c2ccccc2C#N)C2=C(C(=O)CCC2)C1c1ccsc1 (stereo not drawn)	inactive: 31.1%
CCC(=O)N1CCCc2cc(S(=O)(=O)N3CCN(c4ccccn4)CC3)ccc21	inactive: -8.15%
C=CCn1c(SCC(=O)Nc2ncc(Cc3ccc(C)c(Cl)c3)s2)nnc1-c1ccncc1	inconclusive: -53.9%
Cc1ccc(-c2cc(C(=O)N/N=C/c3c(C)nn(-c4ccccc4)c3C)n[nH]2)s1	active: -115%
CCCCN(C)C/C(O)=C(\C#N)c1nc(-c2ccccc2)cs1	inactive: -9.34%
Cc1ccc(-c2cn3nc(C)c(C)nc3n2)cc1	inconclusive: -32.4%
CCCNC(=O)c1cnc(Sc2ncc(C(F)(F)F)cc2Cl)n1C	inactive: 25.2%
COc1ccccc1NC(=O)CSc1nnnn1C	inconclusive: -32%
O=C(c1ccc(NS(=O)(=O)c2cccs2)cc1)N1CCCCC1	inconclusive: -37.2%
CCn1nc(C(=O)NCCc2ccc(S(N)(=O)=O)cc2)c2ccccc2c1=O	inconclusive: -31.2%

Compound	activity change (PNC), negative = inhibition
CCOC(=O)CCn1c2nc(C)cc(C)c2c(=O)n1-c1ccccc1	inconclusive: -60.2%
COCCN(CC(=O)NCc1ccc2c(c1)OCO2)C(=O)CCC(=O)Nc1nccs1	active: -100%
O=C(NCc1ccccc1)C1COc2ccccc2O1 (stereo not drawn)	inconclusive: -47.7%
CN(/N=C/C=C/c1ccccc1)C1=NS(=O)(=O)c2ccccc21	inactive: 92.6%
CC(C)c1ccccc1NC(=O)C1CN(S(=O)(=O)c2ccccc2)CCN1S(=O)(=O)c1ccccc1 (stereo not drawn)	inactive: -10.3%
O=C(CSc1nnc(Cc2cccs2)n1CCc1ccccc1)N1CCCc2ccccc21	inconclusive: -36.5%
Cc1ccc(CNc2nc(N)c([N+](=O)[O-])c(NCc3ccccc3)n2)cc1	inconclusive: -44.8%
COc1ccc(Cn2c(=O)sc3ccccc32)cc1	inconclusive: -34.6%
COc1ccc(C(=O)Nc2cc(C(F)(F)F)ccc2-n2cnc3ccccc32)cc1	inconclusive: -41.4%
O=C(CC1NCCNC1=O)OCc1ccccc1 (stereo not drawn)	inactive: -21.8%
Cc1cc(N2CCCCC2)nc(N)n1	inconclusive: -38.9%
CC1CCN(c2ccc([N+](=O)[O-])cc2C(=O)O)CC1	inactive: 26.4%
O=C(COC(=O)c1ccco1)NCC1CCCO1 (stereo not drawn)	inconclusive: -53.8%
COc1cccc(C2CC(=O)NC(SC)=C2C#N)c1 (stereo not drawn)	inactive: 9.82%
Cc1cccc(N2C(=O)c3cccc4c(N5CCCCC5)c([N+](=O)[O-])cc(c34)C2=O)c1C	inconclusive: -53.4%
COc1ccc(/C=C2\SC(=S)N(Cc3cccnc3)C2=O)cc1C	inconclusive: -37.7%
CNc1nc(N(C)C)nc(N(C)C)n1	inconclusive: -34.4%
CCn1c(SCC(=O)c2cc(OC)ccc2OC)nc2c1c(=O)n(C)c(=O)n2C	inconclusive: -40.1%
O=C1CCC(C(=O)NCc2cccnc2)N1 (stereo not drawn)	active: -100%
CCOC(=O)CCn1nc(-c2ccccc2)cc1N	inconclusive: -39.5%

Of the compounds above, 14 have a carbonyl joined to an NH by a bond outside any ring:
Compound	activity change (PNC), negative = inhibition
COCCCn1c(SCC(=O)Nc2ccc(C(=O)OC)cc2)nc2ccccc2c1=O	active: -117%
CCCNC(=O)C(=O)N/N=C/c1cccs1	inconclusive: -63%
Cc1cc(C)n2nc(C(=O)NCc3ccccc3)nc2n1	inconclusive: -30.3%
C=CCn1c(SCC(=O)Nc2ncc(Cc3ccc(C)c(Cl)c3)s2)nnc1-c1ccncc1	inconclusive: -53.9%
Cc1ccc(-c2cc(C(=O)N/N=C/c3c(C)nn(-c4ccccc4)c3C)n[nH]2)s1	active: -115%
CCCNC(=O)c1cnc(Sc2ncc(C(F)(F)F)cc2Cl)n1C	inactive: 25.2%
COc1ccccc1NC(=O)CSc1nnnn1C	inconclusive: -32%
CCn1nc(C(=O)NCCc2ccc(S(N)(=O)=O)cc2)c2ccccc2c1=O	inconclusive: -31.2%
COCCN(CC(=O)NCc1ccc2c(c1)OCO2)C(=O)CCC(=O)Nc1nccs1	active: -100%
O=C(NCc1ccccc1)C1COc2ccccc2O1 (stereo not drawn)	inconclusive: -47.7%
CC(C)c1ccccc1NC(=O)C1CN(S(=O)(=O)c2ccccc2)CCN1S(=O)(=O)c1ccccc1 (stereo not drawn)	inactive: -10.3%
COc1ccc(C(=O)Nc2cc(C(F)(F)F)ccc2-n2cnc3ccccc32)cc1	inconclusive: -41.4%
O=C(COC(=O)c1ccco1)NCC1CCCO1 (stereo not drawn)	inconclusive: -53.8%
O=C1CCC(C(=O)NCc2cccnc2)N1 (stereo not drawn)	active: -100%

Carrying on.

Compound	activity change (PNC), negative = inhibition
O=C(NN1C(=O)c2ccccc2NC1c1ccccn1)c1ccc([N+](=O)[O-])cc1 (stereo not drawn)	inconclusive: -55.4%
CCCn1cc(SCC(=O)NCC2CCCO2)c2ccccc21 (stereo not drawn)	inactive: -11.9%
Cc1cc(C(=O)CSc2nnc(-c3ccco3)o2)c(C)n1Cc1ccco1	inactive: -7.2%
Cc1cccc(Nc2nnc(-c3ccc(C(=O)N4C[C@H]5C[C@H](C4)c4cccc(=O)n4C5)cc3)c3ccccc23)c1	inactive: -14.8%
CC(SC1=NCCS1)C(=O)Nc1nnc(-c2ccc(Cl)cc2)s1 (stereo not drawn)	inconclusive: -67.3%
Fc1ccc(-c2csc3nnc(SCc4cccnc4)n23)cc1	inactive: -15.3%
O=C(CC(SCCO)c1ccc2c(c1)OCO2)c1ccco1 (stereo not drawn)	inconclusive: -74.8%
CCN(CC)c1ccc(-n2c(C)cc(C=O)c2C)cc1	inactive: 24.5%
Cc1[nH]c2ccccc2c1C(=O)COC(=O)C(C)C	inconclusive: -43.8%
O=C(CSc1nc2nc[nH]c2c(=O)[nH]1)NC1CCCCC1	inconclusive: -43.9%
C[N+]1(CCCCSc2ccc(O)cc2)CCCCC1	inactive: 51.7%
Cc1ccc(CNC(=O)CSc2nc3[nH]ncc3c(=O)[nH]2)cc1	inactive: 0.683%
COC(=O)[C@@H](NC(=O)O[C@@H]1C(=O)c2cc(Br)ccc2O[C@H]1c1cccc(OC)c1)C(C)C	inconclusive: -63.9%
COc1cc(NC(=O)c2cc3nc(C)cc(C)n3n2)c(OC)cc1Cl	inconclusive: -77.9%
O=C(OCCN=C1NS(=O)(=O)c2ccccc21)C1CC(=O)N(c2ccc(Cl)cc2)C1 (stereo not drawn)	inconclusive: -43.9%
O=C(CCn1c(=O)c2ccccc2n(CC(=O)NC2CCCC2)c1=O)NCCc1ccc(Cl)cc1	inconclusive: -31.5%
COc1cc2c(cc1OC)C(C(=O)NCC1COc3ccccc3O1)C(c1cccnc1)N(C)C2=O (stereo not drawn)	inactive: -2.35%
COC(=O)[C@@H](NC(=O)NCc1cccs1)C(C)C	inactive: 11.2%

As a short view, two of the compounds above:
Compound	activity change (PNC), negative = inhibition
Cc1[nH]c2ccccc2c1C(=O)COC(=O)C(C)C	inconclusive: -43.8%
O=C(CSc1nc2nc[nH]c2c(=O)[nH]1)NC1CCCCC1	inconclusive: -43.9%
